Data taken from US12025619B2, “Methods and systems for detecting prostaglandins by LC-MS/MS” (Laboratory Corporation of America Holdings, priority 2020, dated 2024).
Several values for one entry are separate records, joined by “and”; a condition that tells them apart may be missing. Identical values can stand only once. At least one compound was matched to its structure with a doubt left.

Test: Short-term and freeze/thaw stability in human serum
Type: physicochemical
Details: for Mean % Recovery compared to baseline: Donors 1-3
Protocol: Serum samples were collected into red top tubes and frozen immediately. Specimens were stored according to the following conditions: • Short Term Storage • Serum Frozen (≤−10° C. and ≤−55° C.): 7 days • Serum Refrigerated (2-8° C.): Strictly frozen storage.
Short-term and freeze/thaw stability. Sample stability was confirmed by testing human serum from three individual donors that was stored at each of the different conditions likely to be encountered in sample handling and laboratory analysis. […] An additional set of the freshly collected serum underwent up to 6 freeze/thaw cycles prior to stability testing. All serum stability samples and baseline stored samples were tested with freshly prepared calibrators. All testing was performed in triplicate.

[1] = Freeze/Thaw (<−10° C.), 1 Cycle (2 Thaws)
[2] = Freeze/Thaw (<−10° C.), 2 Cycles (3 Thaws)
[3] = Freeze/Thaw (<−10° C.), 3 Cycles (4 Thaws)
[4] = Freeze/Thaw (<−10° C.), 6 Cycles (7 Thaws)
[5] = Refrigerated (2-8° C.), 3.5 Hours
[6] = Refrigerated (2-8° C.), 7 Hours
[7] = Room Temp (15-30° C.), 3.5 Hours

SMILES: CCCCC[C@H](O)/C=C/[C@H]1C(=O)C[C@H](O)[C@@H]1C/C=C\CCCC(=O)O [PGD2, prostaglandin D2]
- Overall Mean % Recovery Compared to Day of Draw [1]: 96.53%
- Mean % Recovery compared to baseline [1]: 98.7% and 96.2% and 94.7%
- Overall Mean % Recovery Compared to Day of Draw [2]: 86.57%
- Mean % Recovery compared to baseline [2]: 84.8% and 85.7%
- Overall Mean % Recovery Compared to Day of Draw [3]: 58.47%
- Mean % Recovery compared to baseline [3]: 62.8% and 59.2% and 53.4%
- Overall Mean % Recovery Compared to Day of Draw [4]: 41.95%
- Mean % Recovery compared to baseline [4]: 45.3% and 42.3% and 38.3%
- Overall Mean % Recovery Compared to Day of Draw (Frozen (<−55° C.), 7 Days): 111.34%
- Mean % Recovery compared to baseline (Frozen (<−55° C.), 7 Days): 107.1% and 112.4% and 114.4%
- Overall Mean % Recovery Compared to Day of Draw (Frozen (≤−10° C.), 7 Days): 101.38%
- Mean % Recovery compared to baseline (Frozen (≤−10° C.), 7 Days): 103.2% and 101.6% and 99.4%
- Overall Mean % Recovery Compared to Day of Draw (Refrigerated (2-8° C.), 1 Day): 27.63%
- Mean % Recovery compared to baseline (Refrigerated (2-8° C.), 1 Day): 29.6% and 28.1% and 25.2%
- Overall Mean % Recovery Compared to Day of Draw (Refrigerated (2-8° C.), 3 Days): 9.01%
- Overall Mean % Recovery Compared to Day of Draw [5]: 92.97%
- Mean % Recovery compared to baseline [5]: 87.5% and 94.3% and 97.2%
- Overall Mean % Recovery Compared to Day of Draw [6]: 70.99%
- Mean % Recovery compared to baseline [6]: 71.0% and 73.9% and 68.1%
- Overall Mean % Recovery Compared to Day of Draw (Room Temp (15-30° C.), 1 Day): 13.91%
- Overall Mean % Recovery Compared to Day of Draw (Room Temp (15-30° C.), 3 Days): 18.61%
- Overall Mean % Recovery Compared to Day of Draw [7]: 55.89%
- Mean % Recovery compared to baseline [7]: 57.3% and 53.3% and 57.1%
- Overall Mean % Recovery Compared to Day of Draw (Room Temp (15-30° C.), 7 Hours): 26.35%
- Mean % Recovery compared to baseline (Room Temp (15-30° C.), 7 Hours): 31.5% and 22.5% and 25.1%
